Measured values published in US20230070261A1 (UCB, published 2023).
Results are given in words; binding and its absence hold for the method and conditions named. Some results given as binding are weak or reduced against the parent protein; the word gives no strength.

The chains behind the UniProt entries cited, without tags or fusion partners. Residues count along the entry.
UniProt Q9Y337, residues 67-293: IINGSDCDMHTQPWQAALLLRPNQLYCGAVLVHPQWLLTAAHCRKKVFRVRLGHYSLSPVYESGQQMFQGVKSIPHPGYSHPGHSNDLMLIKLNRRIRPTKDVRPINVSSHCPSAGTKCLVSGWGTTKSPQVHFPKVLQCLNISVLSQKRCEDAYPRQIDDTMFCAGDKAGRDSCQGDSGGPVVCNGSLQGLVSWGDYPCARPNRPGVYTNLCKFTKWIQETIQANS

What was measured:
[1] = biological target: Human KLK5 (from N-terminal TEV-cleavable 8xHis-tag construct, tag removed) (human) (UniProt Q9Y337); assay: size exclusion chromatography and SDS-PAGE; Fab added to preformed KLK5-LEKTI D5 or KLK5-LEKTI D8 complex
[2] = biological target: Human KLK5 (from N-terminal TEV-cleavable 8xHis-tag construct, tag removed) (human) (UniProt Q9Y337); assay: SDS-PAGE of the SEC peak fractions of KLK5+LEKTI D8+rabbit Fab 10273 (co-elution)
[3] = biological target: Human KLK5 (from N-terminal TEV-cleavable 8xHis-tag construct, tag removed) (human) (UniProt Q9Y337); assay: size exclusion chromatography on Superdex 200; KLK5 first bound to LEKTI D5, then Fab added, 25 uM each (ternary complex)
[4] = biological target: Human KLK5 (from N-terminal TEV-cleavable 8xHis-tag construct, tag removed) (human) (UniProt Q9Y337); assay: SDS-PAGE of the SEC peak fractions of KLK5+LEKTI D5+rabbit Fab 10273 (co-elution)
[5] = biological target: Human KLK5 (from N-terminal TEV-cleavable 8xHis-tag construct, tag removed) (human) (UniProt Q9Y337); assay: size exclusion chromatography on Superdex 200; KLK5 first bound to LEKTI D8, then Fab added, 25 uM each (ternary complex) [cont.) B]

binding [1]: binds
binding [2]: binds
binding [3]: binds
binding [4]: binds
binding [5]: binds
B1: Rabbit Fab antibody 10273 (Fab, V domains shown)
VH: QSVEESGGRLVTPGTPLTLTCTVSGFSLSSYGMSWVRQAPGKGLEWIGIISSSGSTYYASWAKGRFTISKTSTTVDLKIASPTTEDTATYFCARDHIYRYDDYGDYPTYYGMDPWGPGTLVTVSS
VL: AVVLTQTPSPMSAAVGGTVTISCQSSQSVYNNNDLAWYQQKPGQPPKLLIYRASTLASGVPSRFSGSGSGTQFTLTISGVQCDDAATYYCLGGYDDDVDTYTFGGGTEVVVKR
